The results in this text go back to article doi:10.1101/364463 (bioRxiv, 2019).

Protein sequences, listed by entry. Tags and fused reporters are not part of them. Lines headed by an entry give the natural chain unless they say otherwise; changes in a name come on top.
UniProt Q24117, whole entry: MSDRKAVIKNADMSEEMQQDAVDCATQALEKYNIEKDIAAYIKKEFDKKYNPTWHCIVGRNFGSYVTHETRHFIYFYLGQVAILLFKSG
UniProt O96860, whole entry: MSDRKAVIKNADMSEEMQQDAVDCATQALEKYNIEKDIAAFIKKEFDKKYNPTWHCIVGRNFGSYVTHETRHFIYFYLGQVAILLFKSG
UniProt P63167, whole entry: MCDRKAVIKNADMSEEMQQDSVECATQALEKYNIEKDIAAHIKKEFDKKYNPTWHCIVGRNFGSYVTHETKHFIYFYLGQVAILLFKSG

Substitutions are numbered along the chain they refer to. Names may count otherwise. No constants are given. Whether binding was seen depends on the method and setting. Binding seen in cells or lysates may run through a third protein. Some binding calls cover weakened binding; strength is not graded here. Sequences can lack the tags named with a protein.

Assay in all cases: co-IP
Experiment [1] concerns the target T1, HA-PI31 (UAS-HA-PI31-WT, transgenic flies) (Drosophila) (UniProt Q9V637).
T1 sequence: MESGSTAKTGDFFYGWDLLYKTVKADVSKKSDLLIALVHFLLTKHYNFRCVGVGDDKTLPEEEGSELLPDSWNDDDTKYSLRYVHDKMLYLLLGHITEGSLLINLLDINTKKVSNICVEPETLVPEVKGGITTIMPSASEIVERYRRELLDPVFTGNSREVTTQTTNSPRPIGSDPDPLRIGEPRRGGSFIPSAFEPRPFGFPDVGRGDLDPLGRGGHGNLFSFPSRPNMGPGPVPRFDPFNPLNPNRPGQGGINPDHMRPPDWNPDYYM

The target of experiment [2] is T2, HA-PI31 (wild type, expressed in S2 cells) (Drosophila) (UniProt Q9V637).
T2 sequence: T1 sequence

Experiment [3] has as its target T3, HA-PI31-S168A (expressed in S2 cells) (Drosophila) (UniProt Q9V637).
T3 sequence: T1 sequence with S168A

The target in experiment [4] is T4, HA-PI31-S168A (transgenic flies) (Drosophila) (UniProt Q9V637).
T4 sequence: T1 sequence with S168A

Experiment [5] deals with T5, HA-PI31-S168D (expressed in S2 cells) (Drosophila) (UniProt Q9V637).
T5 sequence: T1 sequence with S168D

The target in experiment [6] is T6, HA-PI31-S168D (transgenic flies) (Drosophila) (UniProt Q9V637).
T6 sequence: T1 sequence with S168D

Experiment [7] concerns the target T7, HA-PI31^Knock-in (Drosophila) (UniProt Q9V637).
T7 sequence: T1 sequence

Experiment [8] concerns the target T8, HA-hPI31 (human PI31, in HEK293 cells) (human) (UniProt Q92530).
T8 sequence: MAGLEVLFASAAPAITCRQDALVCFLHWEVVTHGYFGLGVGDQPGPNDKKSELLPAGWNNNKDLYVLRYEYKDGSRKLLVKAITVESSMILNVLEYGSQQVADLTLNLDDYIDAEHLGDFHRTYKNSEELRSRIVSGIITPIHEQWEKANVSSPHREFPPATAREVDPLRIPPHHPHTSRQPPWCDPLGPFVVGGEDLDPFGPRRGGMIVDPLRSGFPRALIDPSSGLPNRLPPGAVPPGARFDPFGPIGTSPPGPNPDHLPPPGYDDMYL

The target in experiment [9] is FLAG-dDYNLL1 (expressed in S2 cells) (Drosophila) (UniProt Q24117).

As for “Cdlc2 (Drosophila homolog of dynein light chain LC8-type 2, dDYNLL2), endogenous (from UniProt O96860 1-89)”, the binding result in [1], in [2], in [3], in experiment [4], in experiment [5] and in experiment [6] was “binds” in each case. In experiment [7], the binding result is “binds”.
Regarding “Ctp (Drosophila homolog of dynein light chain LC8-type 1, dDYNLL1), endogenous (from UniProt Q24117 1-89)”, the binding result in experiment [1], in experiment [2], in [3], in [4], in experiment [5] and in experiment [6] was “binds” in each case. Further, in experiment [7], the binding result is “binds”.
As for “DYNLL1 of HEK293 cells (endogenous) (from UniProt P63167 1-89)”, in [8], the binding result was “binds”.

B1: PI31 of S2 cells (endogenous) (protein, UniProt Q9V637 1-270)
chain: T1 sequence
B1: in experiment [9], the binding result is recorded as “binds”.

B2: HA-PI31-S168D (expressed in S2 cells) (protein, UniProt Q9V637 1-270)
chain: T1 sequence with S168D
B2: the binding entry in experiment [9] was “binds”.

B3: HA-PI31 (wild type, expressed in S2 cells) (protein, UniProt Q9V637 1-270)
chain: T1 sequence
As to B3, in experiment [9], the binding entry was “binds”.

B4: HA-PI31-S168A (expressed in S2 cells) (protein, UniProt Q9V637 1-270)
chain: T1 sequence with S168A
B4: the binding entry in experiment [9] is on record as “binds”.
